Measured values published in patent US20160025732A1.
Results are given in words; binding and its absence hold for the method and conditions named. Some entries that bind do so weakly or less than the wild type.

Amino acid sequences for entries named in this document (tags omitted). A change or cut given only in a name is not applied to a line headed by its entry.
UniProt P07288: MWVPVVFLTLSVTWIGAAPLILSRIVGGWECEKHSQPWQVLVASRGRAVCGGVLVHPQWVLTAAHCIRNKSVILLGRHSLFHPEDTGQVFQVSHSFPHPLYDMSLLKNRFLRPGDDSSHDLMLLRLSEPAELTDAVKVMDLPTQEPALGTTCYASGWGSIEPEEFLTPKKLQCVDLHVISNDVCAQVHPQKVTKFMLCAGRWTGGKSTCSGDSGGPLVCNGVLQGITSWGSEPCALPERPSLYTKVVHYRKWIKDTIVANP

Biological target: Intact PSA (iPSA) Antigen (human) (UniProt P07288)
Test: affinity chromatography, antibody on a streptavidin cartridge, antigen from insect cell lysate

binding: binds
B1: biotinylated monoclonal antibody 5A10 (antibody, V domains shown)
VH: EVQLVESGPGILQPSQTLSLTCSFSGFSLSTTGMGVSWIRQPSGKGLEWLAHLYWDEDKRYNPSLKSRLTISEDSSRNQVFLKITSVGPADSATYYCARKGYYGYFDYWGQGTALTVSS
VL: DIVMTQSQKFMSTSVGDRVSVTCKASQNVNTDVAWYQQKPGQSPKALIFSTSYRSSGVPDRFTGSGSGTDFTLTITNVQSEDLAEYFCQQYSNYPLTFGAGTKVDLN
modifications: biotinylated (site not stated)
